In PubChem BioAssay AID2685 (National Center for Advancing Translational Sciences (NCATS), 2010):
The campaign covered roughly 320,000 compounds. About 2,100 (0.66%) were called active. Inconclusive means that the source gave no clear call. Such entries were picked first, then a sample of the others. The call rests on the fitted dose curve; in most records, active means well fitted inhibition curve with a large enough effect in the signal ratio, with a control signal flat (not every such curve was filed as active); inconclusive means small, poorly fitted or top-dose-only effect, or effect the other way, or a change in a side signal; inactive means flat fitted curve, though single readings scatter; the % refers to the signal ratio. A potency beside an inconclusive call is a rough fit, not a confirmed value.

Test: qHTS Assay for Lipid Storage Modulators in Drosophila S3 Cells
Details: BODIPY lipid droplet fluorescence, 18-24 h, cells fed with added oleic acid; lipid storage change, negative = inhibition: at 46.1 µM (top of the series) unless noted
Procedure, shortened: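 Drosophila S3 cells got compounds at several concentrations plus oleic acid (400 uM solution). Laser-scanning cytometry with 488 nm excitation read lipid droplets at 500-530 nm and cells at 575-640 nm. Percent activity was relative to 20 uM Triacsin C.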
On the % scale 0 is the no-effect control and ±100 the full control effect; potency means the concentration at half of the fitted maximal effect.

| SMILES | lipid storage change, negative = inhibition | Potency | outcome |
| --- | --- | --- | --- |
| COC(=O)C1=C(C(=O)OC)[C@@H]2N(C)c3ccc(OC)cc3[C@@]23C[C@@H](C(=O)OC)N(S(=O)(=O)c2ccc(OC)cc2)C3=N1 | inconclusive: 14.5% | – | – |
| CCN(CC)CCCn1c2c(c(SCC(=O)Nc3nc(C)cs3)nc1=O)CCC2 | inconclusive | – | – |
| NC(=O)COC(=O)CNC(=O)c1sc2ccccc2c1Cl | inconclusive: -8.76% | – | – |
| C=Cc1ccc(Cn2c(=O)n(C)c(=O)c3sccc32)cc1 | inconclusive: 45.1% | – | – |
| COc1cc(C(=O)Nc2nccs2)cc(OC)c1OC | – | inconclusive: 1.84 µM [activator, partial curve, poor fit] | – |
| CC1(NC(=O)NCc2ccccc2)CCS(=O)(=O)C1 (stereo unspecified) | inconclusive: 31.2% | – | – |
| CCOc1ccc(Br)cc1S(=O)(=O)Nc1ccc(NC(=O)c2ccccc2F)cc1 | inconclusive: 38.7% | – | – |
| COc1ccc(-c2c(C)nn3c(-c4ccccc4)cc(C)nc23)cc1 | inconclusive: -54.7% | – | – |
| CCN(CC)S(=O)(=O)c1cc(C(=O)OCC(=O)NC(=O)c2cccn2C)ccc1C | – | inconclusive: 0.259 µM [activator, full curve, poor fit] | – |
| COc1ccc(-c2nc(CSCC(=O)NCCCN3CCCC3=O)c(C)o2)cc1OC | inconclusive: -141% | – | – |
| O=C(CN1CCN(Cc2ccccc2Cl)CC1)N/N=C/c1ccco1 | inconclusive: -8.42% | – | – |
| CCOC(=O)N1CCN(C(=O)CSc2nnc(-c3cccc(OC)c3)o2)CC1 | – | inconclusive: 6.51 µM [falling, single point] | – |
| O=C(c1ccc(NC2=NC3CS(=O)(=O)CC3S2)cc1)N1CCN(c2ccc(F)cc2)CC1 (stereo unspecified) | inconclusive: 0.172% | – | – |
| O=C(Nc1nnc(C2=COCCO2)o1)c1cccc(C(F)(F)F)c1 | inconclusive: -25.6% | – | – |
| COc1ccc(OCc2nnc3n2N=C(c2ccc(Br)cc2)CS3)cc1 | inconclusive: 53.7% | – | – |
| CCOC(=O)N1CCN(c2c(N3CCN(c4cccc(C)c4C)CC3)c(=O)c2=O)CC1 | – | inconclusive: 6.51 µM [falling, single point] | – |
| Cc1cc(C(=O)OCC(=O)Nc2c(Cl)cccc2C(F)(F)F)c(C)o1 | – | inconclusive: 18.4 µM [activator, single point] | – |
| COc1cccc(/C=C/C(=O)N2CC(C)OC(C)C2)c1OC (stereo unspecified) | – | inconclusive: 0.092 µM [falling, full curve, poor fit] | – |
| COCCCNC(=O)CN1C(=O)COc2ccc(S(=O)(=O)N3CCCCCC3)cc21 | inconclusive: -18.2% | – | – |
| COCC(=O)N1CCC(Oc2ccc(C(=O)N(C)Cc3nccs3)cc2)CC1 | – | inconclusive: 9.2 µM [activator, partial curve] | – |
| COc1ccc(Cn2nnnc2CN2CCN(c3ccc(OC)cc3)CC2)cc1 | inconclusive: 11.8% | – | – |
| O=C(COC(=O)c1cc2ccccc2o1)c1ccccc1 | – | – | inactive [at 46.1 µM] |
| CCOC(=O)N1CCN(C(=O)CCc2ccc(S(=O)(=O)NCCc3ccccc3)cc2)CC1 | inconclusive: -0.0655% | – | – |
| COc1cccc(NC(=O)c2cc(OC)c(OC)c(OC)c2Br)c1 | inconclusive: 26.7% | – | – |
| C=CCOc1c(Br)cc(/C=C2/C(=O)ON=C2C)cc1OC | inconclusive: 31.9% | – | – |
| CSc1ccc(CCNC(=O)c2cc(-c3ccccc3)c(N3CCOCC3)s2)cc1 | inconclusive: 22.9% | – | – |

| SMILES | lipid storage change, negative = inhibition | Potency | outcome |
| --- | --- | --- | --- |
| O=C1CN(c2nc(-c3cccs3)nc3sc4c(c23)CCCC4)CCN1 | – | active: 1.64 µM | – |
| CCCNC(=O)CN(C)S(=O)(=O)c1ccc(F)cc1 | inactive: -19.4% | – | – |
| Cc1cc(C(=O)CN2C(=O)NC3(CCCCC3)C2=O)c(C)n1Cc1ccco1 | inconclusive: 7.67% | – | – |
| Cc1nn(CC(=O)NC2CCCC2)c(C)c1[N+](=O)[O-] | inconclusive: 8.65% | – | – |
| Cc1ccc(C(=O)c2c(C)oc3c2C(=O)C(=O)c2ccccc2-3)cc1 | inconclusive: -128% | – | – |
| Cc1ccc(C2=N/C(=C\c3ccc(F)cc3)C(=O)N2)cc1 | – | inconclusive: 6.51 µM [falling, single point] | – |
| CC1=NN(c2ccc(Cl)cc2)C(=O)C1C(c1cccc(O)c1)c1c(C)[nH]n(-c2ccc(Cl)cc2)c1=O (stereo unspecified) | inconclusive: 1.48% | – | – |
| Cc1ccc(-n2c(SCC(=O)NCC3CCCO3)nnc2-c2ccoc2C)cc1 (stereo unspecified) | – | inconclusive: 29.1 µM [falling, single point] | – |
| COC(=O)c1cc(=O)c2c(C)nc(C(Cl)(Cl)Cl)nc2[nH]1 | inconclusive: 13% | – | – |
| O=[N+]([O-])c1cc(S(=O)(=O)O)cc([N+](=O)[O-])c1NN(c1ccccc1)c1ccccc1 | – | inconclusive: 9.2 µM [activator, partial curve] | – |
| Cc1ccsc1/C=N/NC(=O)CC(=O)NCC(C)C | inconclusive: 19% | – | – |
| COc1ccc(C(OC(=O)c2ccco2)C(=O)NC2CCCCC2)cc1OC (stereo unspecified) | inconclusive: 10.3% | – | – |
| COc1ccccc1-c1ccc(=O)n(CC(=O)NC(C)(C)C)n1 | inconclusive: 12.7% | – | – |
| COc1ccc(NC(=O)C2CCCN(C(=O)Nc3cccc(OC)c3)C2)cc1 (stereo unspecified) | – | inconclusive: 9.2 µM [activator, partial curve] | – |
| COc1ccc(CCC(=O)NNC(=O)Nc2ccccc2Cl)cc1 | inconclusive: 19.8% | – | – |
| CCc1ccc(N(CC(=O)Nc2ccc(OC)cc2OC)S(C)(=O)=O)cc1 | inconclusive: 7.56% | – | – |
| CN(C)c1ccc(/C=C(\NC(=O)c2ccccc2)C(=O)NCCCn2ccnc2)cc1 | inconclusive: -32.1% | – | – |
| O=C(NC(=S)Nc1cc(C(F)(F)F)ccc1N1CCOCC1)c1ccco1 | inconclusive: 11.5% | – | – |
| O=C(N/N=C\c1cc([N+](=O)[O-])ccc1N1CCOCC1)c1ccccn1 | inconclusive: 2.36% | – | – |
| CC1CC1c1ccc(/C=C(\C#N)C(=O)Nc2cccc(Cl)c2Cl)o1 (stereo unspecified) | – | inconclusive: 6.51 µM [cytotoxic, single point] | – |
| COc1ccccc1-c1sc2ccccc2c1-c1ccc2c(c1)OCO2 | – | inconclusive: 0.731 µM [activator, partial curve, poor fit] | – |
| Oc1ccc(/C=N/N(c2ccccc2)c2ccccc2)c(O)c1O | inconclusive: 259% | – | – |
| CCC(C)(C)NC(=O)C(c1ccc(OC)cc1)N(C(=O)CCC(=O)Nc1cc(C)on1)c1cccc(OC)c1 (stereo unspecified) | inconclusive: -19.9% | – | – |
| O=C(CSc1nnnn1-c1ccccc1)Nc1ccccc1 | inconclusive: 46.5% | – | – |
| CN(C)c1ccc(-c2ccc3c(=O)c4ccccc4n(C)c3c2)cn1 | – | active: 23.1 µM | – |
| O=C1C=C(c2cc(Cl)cc(Cl)c2)C[C@@H](c2ccc3c(c2)OCO3)C1 | – | inconclusive: 0.731 µM [activator, partial curve, poor fit] | – |

| SMILES | lipid storage change, negative = inhibition | Potency | outcome |
| --- | --- | --- | --- |
| O=C(COC(=O)c1cc(=O)[nH]c2ccccc12)NC(=O)NC1CCCCC1 | inconclusive: 2% | – | – |
| CC(C)(C)C(=O)Nc1nnc(SCC(=O)NC2CC2)s1 | inconclusive: -33.9% | – | – |
| COc1ccc(NC(=O)c2cccnc2)c([N+](=O)[O-])c1 | inconclusive: 20.4% | – | – |
| CCN1CCN(C(=O)c2ccccc2N(Cc2ccccc2)S(=O)(=O)c2ccc(OC)cc2)CC1 | inconclusive: 29.8% | – | – |
| FC(F)(F)c1cccc(NC(=S)Nc2ccc(Cl)cc2Cl)c1 | inconclusive: -66.5% | – | – |
| O=[N+]([O-])c1cc(S(=O)(=O)N2CCCCC2)ccc1NCCN1CCOCC1 | inconclusive: 0.937% | – | – |
| O=C(Oc1ccc([N+](=O)[O-])cc1)c1cncc(Br)c1 | – | inconclusive: 4.11 µM [activator, full curve] | – |
| Cc1cc(C)c2c(n1)sc1c(=O)[nH]c(SCc3ccccc3)nc12 | – | inconclusive: 0.0058 µM [falling, full curve, poor fit] | – |
| CN1CCN(CC(O)COCCOc2ccc(Br)cc2)CC1 (stereo unspecified) | inconclusive: 0.855% | – | – |
| CN(CCOc1ccccc1)CC(=O)Nc1ccc(Cl)c(S(=O)(=O)N(C)C)c1 | inconclusive: 17.2% | – | – |
| COc1ccc(CNc2nc(S(=O)(=O)c3ccccc3)c(Cl)s2)cc1OC | inactive: -3.6% | – | – |
| CCOC(=O)CSC1=C(C#N)C(c2ccco2)C(C(=O)Nc2cccc(C(F)(F)F)c2)=C(C)N1 (stereo unspecified) | – | inconclusive: 6.51 µM [falling, full curve, poor fit] | – |
| CCOC(=O)C1CCN(C(=O)c2ccccc2NS(=O)(=O)c2cc(C)ccc2C)CC1 | inconclusive: 0.673% | – | – |
| CN(C)S(=O)(=O)c1ccc(Cl)c(NC(=O)CN2CCNC(=O)C2)c1 | inconclusive: -5.52% | – | – |
| CCOC(=O)C1=C(C)NC(SCc2cc(=O)[nH][nH]2)=C(C#N)C1c1cccs1 (stereo unspecified) | inconclusive: 51.3% | – | – |
| COC(=O)c1oc(-c2ccc(Cl)cc2)nc1C | inactive: -2.09% | – | – |
| COc1cc(NC(=O)c2cccc3c2C(=O)N(Cc2cccnc2)C3)cc(OC)c1OC | inconclusive: 26.9% | – | – |
| CN1C/C(=C/c2cccnc2)C(=O)/C(=C/c2cccnc2)C1 | – | active: 1.84 µM | – |
| COc1ccc(NC(=O)CC2SC(=NCC3CCCO3)NC2=O)cc1 (stereo unspecified) | – | inconclusive: 10.3 µM [activator, single point] | – |
| Cc1cc(C)c(NC(=O)Cn2nnc(C(=O)NCCc3ccccc3)c2N)c(C)c1 | inconclusive: -33.2% | – | – |
| COc1cc([C@@H]2Oc3cc(C4Oc5cc(O)cc(O)c5C(=O)[C@H]4O)ccc3O[C@H]2CO)ccc1O (stereo partly specified) | inconclusive: 30.4% | – | – |
| O=C(/C=C/c1cccs1)c1cc(Cl)ccc1OC(=O)N1CCOCC1 | inconclusive: -40.3% | – | – |
| Cn1c(C2CCCN2C(=O)OC(C)(C)C)n[nH]c1=S (stereo unspecified) | – | inconclusive: 0.146 µM [activator, single point] | – |
| Cc1cccc(Nc2ncnc3ccc(Br)cc23)c1 | inconclusive: 37.1% | – | – |

Fetched one by one from the entries so far, three records:

| SMILES | lipid storage change, negative = inhibition | Potency | outcome |
| --- | --- | --- | --- |
| CN(CCOc1ccccc1)CC(=O)Nc1ccc(Cl)c(S(=O)(=O)N(C)C)c1 | inconclusive: 17.2% | – | – |
| CCOC(=O)C1=C(C)NC(SCc2cc(=O)[nH][nH]2)=C(C#N)C1c1cccs1 (stereo unspecified) | inconclusive: 51.3% | – | – |
| COc1ccc(NC(=O)c2cccnc2)c([N+](=O)[O-])c1 | inconclusive: 20.4% | – | – |
